# Measured values published in the supplement of paper PMC11542785.
# Counter-ions that a name gives are not always drawn. The list shows a part of the results. Single values are uncertain, as repeats are few or missing.
# Test system: Drosophila melanogaster DPAGT1 (Alg7) RNAi eye model
# Test: eye size Z-score vs DMSO-treated DPAGT1 model flies; higher = larger eye (suppression of DPAGT1 phenotype)
# Details: 5 uM
SMILES,eye size Z-score,eye size Z-score (female)
COC(=O)[C@H]1[C@H]2C[C@@H]3c4[nH]c5cc(OC)ccc5c4CCN3C[C@H]2C[C@@H](OC(=O)c2cc(OC)c(OC)c(OC)c2)[C@@H]1OC [Reserpine],-0.49,
CNC(=C[N+](=O)[O-])NCCSCc1ccc(CN(C)C)o1 [Ranitidine hydrochloride],-0.92,
CC(C)C[C@H](NC(=O)[C@@H](O)[C@H](N)Cc1ccccc1)C(=O)O [Ubenimex],0.08,
CCOC(=O)[C@H](CCc1ccccc1)N[C@@H](C)C(=O)N1[C@H](C(=O)O)C[C@H]2CCCC[C@@H]21 [Trandolapril],1.58,
CC(C)(CO)[C@@H](O)C(=O)NCCCO [(D)-Panthenol],,0.6
CCOc1ccccc1C(N)=O [Ethenzamide],0.42,
CCCCCCCCCCCCCCCC[N+](C)(C)CCN(Cc1ccc(OC)cc1)c1ncccn1 [Thonzonium bromide],-0.07,
C#C[C@]1(O)CC[C@H]2[C@@H]3CCc4cc(OC)ccc4[C@H]3CC[C@@]21C [Mestranol],-0.32,
CC(C)NCC(O)c1ccc(NS(C)(=O)=O)cc1 (configuration not stated) [Sotalol hydrochloride],1.22,
CC(=O)N1CCN(c2ccc(OCC3COC(Cn4ccnc4)(c4ccc(Cl)cc4Cl)O3)cc2)CC1 (configuration not stated) [Ketoconazole],0.23,
CN(CCOc1ccc(NS(C)(=O)=O)cc1)CCc1ccc(NS(C)(=O)=O)cc1 [Dofetilide],0.49,
COC(=O)C1=C(C)NC(C)=C(C(=O)OC)C1c1ccccc1[N+](=O)[O-] [Nifedipine],0.72,
CCN(CC)CCOC(=O)C1(c2ccc([N+](=O)[O-])cc2)CCCC1 [Nitrocaramiphen hydrochloride],0.14,
Clc1ccccc1CN1CCc2sccc2C1 [Ticlopidine hydrochloride],1.42,
Nc1ccc(O)c(C(=O)O)c1 [Mesalamine],-0.57,
Cc1cc(NC(=O)C2=C(O)c3ccccc3S(=O)(=O)N2C)no1 [Isoxicam],0.19,
Cc1cc(C(C)(C)CC(C)(C)C)ccc1OCCOCC[N+](C)(C)Cc1ccccc1 [Methyl benzethonium chloride],0.35,
CN(C)CCCN1c2ccccc2CCc2ccc(Cl)cc21 [Clomipramine hydrochloride],0.5,
CO[C@@]1(NC(=O)C2SC(=C(C(N)=O)C(=O)O)S2)C(=O)N2C(C(=O)O)=C(CSc3nnnn3C)CS[C@@H]21 (some centres not stated) [Cefotetan],,-1.33
C#C[C@]1(OC(C)=O)CC[C@H]2[C@@H]3CCC4=C[C@@H](OC(C)=O)CC[C@@H]4[C@H]3CC[C@@]21C [Ethynodiol diacetate],-0.72,
Nc1ccc(S(=O)(=O)Nc2ncccn2)cc1 [Sulfadiazine],0.08,
CO[C@@]1(NC(=O)C(C(=O)O)c2ccc(O)cc2)C(=O)N2C(C(=O)O)=C(CSc3nnnn3C)CO[C@@H]21 (some centres not stated) [Moxalactam disodium salt],-0.11,
C#C[C@]1(O)CC[C@H]2[C@@H]3CCC4=CC(=O)CC[C@@H]4[C@H]3CC[C@@]21C [Norethindrone],0.53,
O=C(O)CNC(=O)c1ccccc1 [Hippuric acid],-0.19,

SMILES,eye size Z-score,eye size Z-score (female)
CC(=O)O[C@]1(C(C)=O)CC[C@H]2[C@@H]3C=C(C)C4=CC(=O)CC[C@@H]4[C@H]3CC[C@@]21C [Nomegestrol acetate],0.15,
NS(=O)(=O)c1cc2c(cc1Cl)N=C(CSCc1ccccc1)NS2(=O)=O [Benzthiazide],-0.04,
O=C1C(CC[S+]([O-])c2ccccc2)C(=O)N(c2ccccc2)N1c1ccccc1 (configuration not stated) [Sulfinpyrazone],-0.55,
CC(=O)Oc1cc(C(F)(F)F)ccc1C(=O)O [Triflusal],1.74,
N=c1ccn2c(n1)O[C@H]1[C@H](O)[C@@H](CO)O[C@H]12 [Ancitabine hydrochloride],1.16,
CC(=O)Oc1c(C)cccc1C(=O)O [Cresopirine],0.36,
C[C@]12C=CC(=O)C=C1CC[C@@H]1[C@@H]2[C@@H](O)C[C@@]2(C)[C@H]1CC[C@]2(O)C(=O)CO [Prednisolone],-0.08,
O=c1[nH]cc(F)c(=O)[nH]1 [5-fluorouracil],0.48,
CO/N=C(\C(=O)N[C@@H]1C(=O)N2C(C(=O)[O-])=C(C[n+]3ccn4ncccc43)CS[C@H]12)c1nsc(N)n1 [Cefozopran hydrochloride],-0.43,
CS(=O)(=O)c1ccc([C@@H](O)[C@@H](CO)NC(=O)C(Cl)Cl)cc1 [Thiamphenicol],1.15,
"CC(C)Cc1ccc([C@H](C)C(=O)O)cc1 [(S,+) Ibuprofen]",-0.64,
C[C@@H](c1ncncc1F)[C@](O)(Cn1cncn1)c1ccc(F)cc1F [Voriconazole],-0.11,
O=C(O)Cc1ccccc1Nc1c(Cl)cccc1Cl [Diclofenac sodium],0.22,
CN1CCN(CCCN2c3ccccc3Sc3ccc(S(=O)(=O)N(C)C)cc32)CC1 [Thioproperazine dimesylate],-0.06,
C#C[C@]1(O)CC[C@H]2[C@@H]3[C@H](C)CC4=C(CCC(=O)C4)[C@H]3CC[C@@]21C [Tibolone],0.57,
O=C(O)COc1nn(Cc2ccccc2)c2ccccc12 [Bendazac],-0.71,
CC(=O)OCC(=O)[C@@]1(O)CC[C@H]2[C@@H]3CCC4=CC(=O)C=C[C@]4(C)[C@@]3(F)[C@@H](O)C[C@@]21C [Isoflupredone acetate],-0.01,
COc1cc(C(=O)N2CCOCC2)cc(OC)c1OC [Trimetozine],0.36,
CN(C)CCCOc1nn(Cc2ccccc2)c2ccccc12 [Benzydamine hydrochloride],-0.13,
Cc1cc2nc3ccc(N(C)C)cc3[s+]c2cc1N [Tolonium chloride],0.07,
Nc1ccc(S(=O)(=O)Nc2ccc(Cl)nn2)cc1 [Sulfachloropyridazine],0.61,
COc1cc2nc(N3CCN(C(=O)C4CCCO4)CC3)nc(N)c2cc1OC (configuration not stated) [Terazosin hydrochloride],-0.04,
C[N+]1(C)CCC(=C(c2ccccc2)c2ccccc2)CC1 [Diphemanil methylsulfate],0.24,

# Copied from the results shown for reference:
SMILES,eye size Z-score,eye size Z-score (female)
O=C(O)Cc1ccccc1Nc1c(Cl)cccc1Cl [Diclofenac sodium],0.22,
CN1CCN(CCCN2c3ccccc3Sc3ccc(S(=O)(=O)N(C)C)cc32)CC1 [Thioproperazine dimesylate],-0.06,
C#C[C@]1(O)CC[C@H]2[C@@H]3[C@H](C)CC4=C(CCC(=O)C4)[C@H]3CC[C@@]21C [Tibolone],0.57,
O=C(O)COc1nn(Cc2ccccc2)c2ccccc12 [Bendazac],-0.71,
CC(=O)OCC(=O)[C@@]1(O)CC[C@H]2[C@@H]3CCC4=CC(=O)C=C[C@]4(C)[C@@]3(F)[C@@H](O)C[C@@]21C [Isoflupredone acetate],-0.01,
COc1cc(C(=O)N2CCOCC2)cc(OC)c1OC [Trimetozine],0.36,
CN(C)CCCOc1nn(Cc2ccccc2)c2ccccc12 [Benzydamine hydrochloride],-0.13,
Cc1cc2nc3ccc(N(C)C)cc3[s+]c2cc1N [Tolonium chloride],0.07,
Nc1ccc(S(=O)(=O)Nc2ccc(Cl)nn2)cc1 [Sulfachloropyridazine],0.61,
